Results are given in words; binding and its absence hold for the method and conditions named. In cells and extracts the contact can be indirect. Binding can be weak; no strength is given.

Chains of the proteins cited; added tags and fusions are not shown. Lines headed by an entry give the natural chain unless they say otherwise; changes in a name come on top.
UniProt Q9BST9: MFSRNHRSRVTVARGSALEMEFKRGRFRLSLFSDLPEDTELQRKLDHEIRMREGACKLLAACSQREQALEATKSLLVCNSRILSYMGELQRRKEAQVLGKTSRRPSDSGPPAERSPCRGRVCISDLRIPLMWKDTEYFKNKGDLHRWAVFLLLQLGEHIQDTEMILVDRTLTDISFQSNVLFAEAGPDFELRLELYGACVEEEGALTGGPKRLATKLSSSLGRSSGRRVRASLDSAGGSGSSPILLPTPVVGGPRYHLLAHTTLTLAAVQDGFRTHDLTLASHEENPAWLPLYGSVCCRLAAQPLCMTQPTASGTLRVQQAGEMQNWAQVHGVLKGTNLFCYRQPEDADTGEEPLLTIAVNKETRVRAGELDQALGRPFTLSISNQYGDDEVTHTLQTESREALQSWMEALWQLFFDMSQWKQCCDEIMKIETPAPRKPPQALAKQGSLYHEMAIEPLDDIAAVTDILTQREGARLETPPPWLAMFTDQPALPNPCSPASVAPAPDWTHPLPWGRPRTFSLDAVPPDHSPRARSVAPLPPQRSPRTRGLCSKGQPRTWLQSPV
UniProt P62745: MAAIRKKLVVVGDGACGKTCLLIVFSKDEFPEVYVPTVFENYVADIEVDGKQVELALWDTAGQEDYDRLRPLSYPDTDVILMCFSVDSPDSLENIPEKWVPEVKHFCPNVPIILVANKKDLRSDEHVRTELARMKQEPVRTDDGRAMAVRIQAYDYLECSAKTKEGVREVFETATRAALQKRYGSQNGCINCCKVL

This test addresses Rho-binding domain (RBD) of Rhotekin on agarose beads (UniProt Q9BST9). Description: pull-down; Rhotekin RBD agarose beads (RhoB activation assay kit, Cell Biolabs) incubated with lysates of AdTRβ-infected BHP18-21v cells treated with or without 30 nM T3 and/or 5 µM FTI for 24 h; RhoB in the precipitates detected by Western blot; only the target purified. A general note: Immunoblotting shows a protein as a band on a membrane.

As for “RhoB (active GTP-bound form) (from UniProt P62745 1-196)”, the binding result is “binds”.

(Values after article PMC4280201.)
